Library screening results

Amino acid sequences for entries named in this document (tags omitted).
UniProt E9BF75, entry or part of it: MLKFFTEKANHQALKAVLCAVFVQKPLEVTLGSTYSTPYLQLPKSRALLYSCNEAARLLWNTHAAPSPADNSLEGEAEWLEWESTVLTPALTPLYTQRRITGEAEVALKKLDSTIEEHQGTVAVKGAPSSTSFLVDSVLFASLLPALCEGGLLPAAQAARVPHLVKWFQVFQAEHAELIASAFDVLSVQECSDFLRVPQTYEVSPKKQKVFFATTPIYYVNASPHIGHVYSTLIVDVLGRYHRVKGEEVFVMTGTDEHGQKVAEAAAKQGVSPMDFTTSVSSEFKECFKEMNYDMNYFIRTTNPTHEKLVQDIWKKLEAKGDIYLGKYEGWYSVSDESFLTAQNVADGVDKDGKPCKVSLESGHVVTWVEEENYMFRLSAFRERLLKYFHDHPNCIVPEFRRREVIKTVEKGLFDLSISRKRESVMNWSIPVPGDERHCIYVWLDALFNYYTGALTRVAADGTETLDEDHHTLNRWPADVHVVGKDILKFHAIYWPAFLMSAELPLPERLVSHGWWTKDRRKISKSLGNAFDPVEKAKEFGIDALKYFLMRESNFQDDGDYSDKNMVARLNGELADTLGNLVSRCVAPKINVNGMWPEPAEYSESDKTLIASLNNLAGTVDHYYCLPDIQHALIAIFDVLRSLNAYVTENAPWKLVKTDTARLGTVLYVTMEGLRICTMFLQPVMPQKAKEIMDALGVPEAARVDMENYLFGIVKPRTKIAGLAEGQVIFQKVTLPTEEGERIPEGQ

From ChEMBL document CHEMBL3988442, “University of Dundee, Small-Polar-MMV Screening Library” (2021).

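Methionyl-tRNA synthetase (putative), Leishmania donovani (UniProt E9BF75). Primary screen of methionyl-tRNA synthetase; the read-out is not stated. The test concentration is not given. The values are filed as inhibition. About 68,000 compounds were tested under these conditions; 0.035% (about 24) showed 50% or more at least once.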

All values are in %. The record does not define 0% and 100%; most values in the screen are far below 50% and negative numbers occur (in some assays of this library far below -100). This is an unselected part of the compounds tested.

| Compound | Inhibition |
|---|---|
| `CN1CCC2(CC1)CN(C(=O)c1cccnc1)Cc1ccccc12` | -4% |
| `Cc1cccc(Cn2cc(Br)c(NS(C)(=O)=O)n2)c1` | 29.4% |
| `CC(=O)Nc1nc(C(=O)N2CCCC(c3cc(C)[nH]n3)C2)cs1` (stereo not given) | 13.39% |
| `OC(CN(Cc1ccccc1)Cc1cscn1)c1cccs1` (stereo not given) | 15.36% |
| `COc1cc(N2CCC3(CCN(Cc4csc(C)n4)C3)CC2)ncn1` | 13.51% |
| `Cc1nc(CSCCC(=O)Nc2cccc(N3CCNC3=O)c2)cs1` | 4.852% |
| `CN1CCN(C)C(CNC(=O)N(C)Cc2ccccc2Cl)C1` (stereo not given) | 11.67% |
| `CCC1CN(C(=O)c2cnc(-c3ccccc3)s2)CCO1` (stereo not given) | 4.348% |
| `O=S(=O)(NC1CC1)c1cccc(Br)c1` | 0.7246% |
| `Cc1noc(C(C)N2CCN(CCN3CCCC3=O)CC2)n1` (stereo not given) | 26.67% |
| `COc1cccc(COCC(=O)NC(C(N)=O)c2ccccc2)c1` (stereo not given) | 9.235% |
| `O=C(NCCn1ccnc1)NCc1ccc(N2CCCCCC2)nc1` | 3.958% |
| `CCOc1ccc(NC(=O)N2CCOC(C(N)=O)C2)cc1C` (stereo not given) | 14.72% |
| `Cc1n[nH]cc1C(=O)N1CCCC1c1cc[nH]n1` (stereo not given) | 18.06% |
| `Cn1ccnc1N1CCN(C(=O)Cc2ccccc2)CC1` | 5.519% |
| `CS(=O)(=O)c1ccc2c(c1)N(C(=O)Cc1cccc(F)c1)CCC2` | 6.494% |
| `CC(C)c1cc(NC(=O)CNC2CCCN(c3cccnn3)C2)on1` (stereo not given) | 26.21% |
| `COC(C)(C)C(=O)N[C@H]1CN(c2ncccc2C(N)=O)C[C@@H]1C(C)C` | 3.621% |
| `COc1cccc(CNCc2cccnc2-n2cccn2)c1OC` | 5.584% |
| `C[C@@H]1CN(Cc2cc(C3CCCCC3)no2)CC[C@]1(C)O` | 14.29% |
| `CCn1cc2c(n1)CN(Cc1ccoc1)CC2COCC1CC1` (stereo not given) | 12.38% |
| `Cc1cc(NC(=O)Nc2ccc3c(ccn3CCN(C)C)c2)n(C)n1` | 8.71% |
| `COc1c(C2CCCN2Cc2nc(-c3ccco3)no2)c(C)nn1C` (stereo not given) | 23.33% |
| `COc1ccc2c(c1)CCCN2C(=O)CN1CCOC(CN(C)C)C1` (stereo not given) | 12.41% |
| `Cn1ccc2c(NC(=O)Cn3ncc4c(c3=O)CCCC4)cccc21` | 15.55% |
| `Cc1cnn(CC2CCCCN2C(=O)Cc2c(C)nn(C)c2C)c1` (stereo not given) | 20.92% |
| `Cc1cc(C)nc(C2CCN(c3ccncn3)C2)n1` (stereo not given) | 18.35% |
| `N[C@@H](Cc1ccccc1)c1nnc(S(=O)(=O)Cc2ccc(Cl)cc2)o1` | 6.233% |
| `COCC(=O)NCCSCCOc1cccc(Br)c1` | 1.389% |
| `Cc1cnc(C(=O)N2CCCC(c3c(C)c(=O)nc4n3CCC4)C2)cn1` (stereo not given) | 9.896% |
| `CN(C)CCCN1CC2(CCN(C(=O)C3(C)CCCCO3)CC2)OC1=O` (stereo not given) | 6.944% |
| `CN(C)c1cc(CNC(=O)c2ccccc2Cl)ccn1` | 20.48% |
| `COc1cc(C(=O)N(Cc2cnn(C)c2)C(C)C)ccc1OC(C)C` | 15.92% |
| `N#Cc1cccc(OCCN2CCCC2C(=O)NCC(F)(F)F)c1` (stereo not given) | 12.71% |
| `O=C(C1CCOC1)N1CCC2(CCNCC2)C1` (stereo not given) | 10.08% |
| `O=C(Nc1ccccn1)C1CCN(Cc2cccc3c2OCCO3)CC1` | 12.31% |
| `O=C(c1ccsc1)N1CC(C(=O)N2CCOCC2)C2(CCOCC2)C1` (stereo not given) | 7.843% |
| `Cc1ccc(F)c2c1N(C(=O)c1cn(CC(=O)N(C)C)nn1)CCC2` | 11.11% |
| `Cn1cc(CN2C[C@@H]3COC[C@H](C(=O)Nc4cccnc4)[C@@H]3C2)cn1` | 10.66% |
| `CCCn1c(C)c(CC(=O)NCCC(N)=O)c2c1CC(C)(C)CC2=O` | 7.902% |
| `CC(C)(C)Cc1noc2ncc(C(=O)N3CCSCC3)cc12` | 8.681% |
| `CC(C)NC(=O)c1nnn(-c2cccc(C(F)(F)F)c2)c1N` | 0% |
| `CNc1cncc(C2CCCN2C(=O)CCn2ccnc2)n1` (stereo not given) | 9.969% |
| `Cc1cnc(CNC(=O)C[C@@H]2COC[C@H]3CN(C4CCC4)C[C@@H]23)cn1` | 8.696% |
| `Cc1ccc(N2CCCN(C(=O)C(C)OCC3CC3)CC2)nn1` (stereo not given) | 17.33% |
| `CC(=O)N(C)C1CCN(c2ncc3c(n2)CCN3c2ccccc2)C1` (stereo not given) | 11.76% |
| `CC(C)CN1Cc2cccc(NC(=O)Cc3ccon3)c2C1` | 6.25% |
| `COCCCN1CCN(CCOC)C(C)C1` (stereo not given) | 27.37% |
| `COC(=O)c1cccc(CN(C)C(C)c2ccccn2)c1` (stereo not given) | 12.83% |
| `CC(C)N(Cc1ccccc1)Cc1nnsc1Cl` | 6.425% |
| `CCN1CCOCC2(CCCN(C(=O)c3cnccn3)C2)C1` (stereo not given) | 13.78% |
| `CCNC(=O)NC1CCCN(c2ccc(C)cc2)C1=O` (stereo not given) | 15.32% |
| `CCc1ccccc1CNC(=O)CNC(=O)C(C)(C)C` | 24.15% |
| `CN1CCN(C2CCCC2)C(CCO)C1` (stereo not given) | 11.61% |
| `Cn1c(SCC(=O)NC(C)(C#N)C2CC2)nc2ccccc21` (stereo not given) | 11.59% |